Measurements published in paper doi:10.1101/2025.02.10.637573 (bioRxiv, 2025).
Substitutions are numbered along the chain they refer to. Like-named read-outs stand apart in the source and are kept apart here. Results are given in words; binding and its absence hold for the method and conditions named. Binding can be weak; no strength is given. For part of these data: In cells and extracts the contact can be indirect.

The chains behind the UniProt entries cited, without tags or fusion partners. Where a name states a change or a piece, a line headed by the entry shows the natural chain unless it says otherwise.
UniProt P36044: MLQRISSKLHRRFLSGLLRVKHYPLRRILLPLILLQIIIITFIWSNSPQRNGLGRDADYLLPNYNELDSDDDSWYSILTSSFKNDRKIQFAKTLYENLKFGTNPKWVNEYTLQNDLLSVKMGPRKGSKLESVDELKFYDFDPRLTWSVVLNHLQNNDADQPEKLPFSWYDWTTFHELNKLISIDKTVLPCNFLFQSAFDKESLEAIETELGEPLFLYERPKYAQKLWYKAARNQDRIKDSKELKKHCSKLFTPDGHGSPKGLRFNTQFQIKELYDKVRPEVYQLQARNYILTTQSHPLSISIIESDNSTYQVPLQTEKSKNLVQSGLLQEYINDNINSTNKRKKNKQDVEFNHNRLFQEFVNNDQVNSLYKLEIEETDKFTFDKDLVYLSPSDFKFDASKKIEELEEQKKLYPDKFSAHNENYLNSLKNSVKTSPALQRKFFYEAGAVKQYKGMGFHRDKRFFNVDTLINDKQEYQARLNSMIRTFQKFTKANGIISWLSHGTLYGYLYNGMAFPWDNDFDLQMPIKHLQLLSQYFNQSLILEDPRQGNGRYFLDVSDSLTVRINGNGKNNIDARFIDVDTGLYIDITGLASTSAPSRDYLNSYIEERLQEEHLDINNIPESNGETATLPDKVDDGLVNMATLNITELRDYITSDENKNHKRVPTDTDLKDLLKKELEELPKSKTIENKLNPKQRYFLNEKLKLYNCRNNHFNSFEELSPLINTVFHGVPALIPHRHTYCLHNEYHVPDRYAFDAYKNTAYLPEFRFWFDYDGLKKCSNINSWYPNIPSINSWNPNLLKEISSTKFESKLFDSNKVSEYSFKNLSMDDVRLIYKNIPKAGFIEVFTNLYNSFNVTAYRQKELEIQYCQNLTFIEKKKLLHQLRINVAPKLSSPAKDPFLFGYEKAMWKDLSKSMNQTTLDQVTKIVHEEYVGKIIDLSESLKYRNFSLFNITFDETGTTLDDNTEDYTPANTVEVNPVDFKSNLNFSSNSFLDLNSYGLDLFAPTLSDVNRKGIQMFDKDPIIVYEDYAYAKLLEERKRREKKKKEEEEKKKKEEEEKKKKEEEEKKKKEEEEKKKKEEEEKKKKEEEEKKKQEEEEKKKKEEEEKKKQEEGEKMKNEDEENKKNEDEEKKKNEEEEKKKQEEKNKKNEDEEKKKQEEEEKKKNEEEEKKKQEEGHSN
UniProt P32368: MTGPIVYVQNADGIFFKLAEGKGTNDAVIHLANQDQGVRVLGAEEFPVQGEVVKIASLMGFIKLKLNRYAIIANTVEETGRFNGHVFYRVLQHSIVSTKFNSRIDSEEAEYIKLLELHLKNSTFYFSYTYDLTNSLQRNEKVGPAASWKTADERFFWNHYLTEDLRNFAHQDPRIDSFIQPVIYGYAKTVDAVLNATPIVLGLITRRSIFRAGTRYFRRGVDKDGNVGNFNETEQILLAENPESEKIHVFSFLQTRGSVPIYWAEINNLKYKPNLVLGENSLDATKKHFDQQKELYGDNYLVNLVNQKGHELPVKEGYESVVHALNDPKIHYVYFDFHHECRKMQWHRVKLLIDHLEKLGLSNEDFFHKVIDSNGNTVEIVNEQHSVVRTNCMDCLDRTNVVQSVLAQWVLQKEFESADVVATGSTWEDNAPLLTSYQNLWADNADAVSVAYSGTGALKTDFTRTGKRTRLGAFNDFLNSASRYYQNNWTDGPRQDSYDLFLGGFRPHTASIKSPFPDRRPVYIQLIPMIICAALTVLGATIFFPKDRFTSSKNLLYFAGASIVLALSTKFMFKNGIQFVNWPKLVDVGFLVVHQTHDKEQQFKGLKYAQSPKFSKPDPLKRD

How the values were obtained:
Test in all cases: pull-down
Twin-Strep-Vps74 = Twin-Strep-Vps74 (yeast, UniProt Q06385)
[1] = biological target: T1, Vps74 K178A R181A (yeast) (UniProt Q06385)
T1 sequence: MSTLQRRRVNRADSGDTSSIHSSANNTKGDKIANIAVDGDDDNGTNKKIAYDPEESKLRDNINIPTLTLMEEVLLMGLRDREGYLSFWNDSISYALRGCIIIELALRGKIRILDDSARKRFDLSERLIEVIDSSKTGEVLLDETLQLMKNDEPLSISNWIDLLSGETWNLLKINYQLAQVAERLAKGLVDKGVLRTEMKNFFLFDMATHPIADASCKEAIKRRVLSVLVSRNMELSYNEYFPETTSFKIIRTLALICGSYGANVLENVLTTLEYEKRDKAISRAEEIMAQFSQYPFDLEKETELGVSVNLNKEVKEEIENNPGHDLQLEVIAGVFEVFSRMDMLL

[2] = biological target: T2, Vps74 (bacterially expressed, as used in the in vitro mixing assays) (yeast) (UniProt Q06385)
T2 sequence: T1 sequence with A178K, A181R

Vps74 R97A (yeast) = biological target: T3, Vps74 R97A (yeast) (UniProt Q06385)
T3 sequence: T1 sequence with R97A, A178K, A181R

Measured: binding

N-terminus of Mnn4 (from UniProt P36044) (domain or fragment)
binds: Twin-Strep-Vps74 | Twin-Strep-Vps74; record 2 | [1] | [2] | Vps74 R97A (yeast)

soluble domain of Sac1 (from UniProt P32368) (domain or fragment)
binds: Twin-Strep-Vps74
